Data as given in PubChem BioAssay AID504774 (Drosophila RNAi Screening Center, 2011)
Test: 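Fly genes whose loss alters survival after alkylation damage to DNA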 (primary screen). Cell system: Drosophila Kc167 cells. Reagent: long dsRNA against Drosophila genes, about 0.25 µg dsRNA per well. Time to read-out: about 6 days: 3 days knock-down, then 3 days with or without MMS. Treatment: methyl methanesulphonate 0.004% (w/v) for 3 days after knock-down. Detection: 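ATP-dependent luminescence as a measure of live cells in MMS-exposed wells, quantile normalised within each plate, with replicate values also given as a mean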. Scale: mean viability with MMS and viability with MMS: higher = more surviving cells after MMS.
In all, the deposit lists about 23,000 reagents; below is a random part of those that have a named target and a result. 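Values are quantile-normalised luminescence on an arbitrary scale; higher means more cells surviving MMS.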 A plus sign joins genes that one reagent is predicted to hit. No sequences are given here.

| target gene | amplicon | mean viability with MMS | viability with MMS, replicate 1 | viability with MMS, replicate 2 |
| --- | --- | --- | --- | --- |
| CG14096 | DRSC10099 | 3.64e6 | 4.10e6 | 4.05e6 |
| tgo (tango) | DRSC17077 | 3.62e6 | 4.17e6 | 4.06e6 |
| Idgf6 (Imaginal disc growth factor 6) | DRSC07360 | 3.51e6 | 3.99e6 | 3.94e6 |
| Muc18B (Mucin 18B) | DRSC20064 | 3.57e6 | 3.99e6 | 4.10e6 |
| Muc18B (Mucin 18B) | DRSC21644 | 3.65e6 | 4.05e6 | 4.21e6 |
| CG3345 | DRSC00596 | 3.67e6 | 4.26e6 | 4.11e6 |
| CG30020 | DRSC06252 | 1.80e6 | 3.96e6 | 3.98e6 |
| CG30020 | DRSC06730 | 3.36e6 | 3.73e6 | 3.89e6 |
| Pkcdelta (Protein kinase C delta) | DRSC19356 | 3.54e6 | 3.87e6 | 4.15e6 |
| Pkcdelta (Protein kinase C delta) | DRSC19399 | 3.51e6 | 3.85e6 | 4.09e6 |
| Cec-Psi1 (Cecropin pseudogene 1) | DRSC21956 | 3.60e6 | 4.01e6 | 4.12e6 |
| CG4983 | DRSC02799 | 3.59e6 | 4.15e6 | 4.03e6 |
| Targ2 (Terminal ADP-ribose protein glycohydrolase 2) | DRSC21970 | 3.42e6 | 3.92e6 | 3.91e6 |
| mtDNA-helicase (mitochondrial DNA helicase) | DRSC02912 | 3.46e6 | 3.98e6 | 3.84e6 |
| elm (ethanol sensitive with low memory) | DRSC12309 | 3.71e6 | 4.31e6 | 4.11e6 |
| CG42365 | DRSC04266 | 3.56e6 | 4.09e6 | 3.97e6 |
| Nemp (Nuclear envelope integral membrane protein) | DRSC20206 | 3.55e6 | 4.06e6 | 4.02e6 |
| Reps (RALBP1 associated Eps domain containing) | DRSC02940 | 3.90e6 | 4.07e6 | 4.77e6 |
| CG11127 | DRSC06043 | 2.85e6 | 2.21e6 | 3.91e6 |
| CG13305 | DRSC09975 | 3.27e6 | 3.61e6 | 3.68e6 |
| CG10418 | DRSC09720 | 3.40e6 | 3.79e6 | 3.87e6 |
| Ir52c (Ionotropic receptor 52c) | DRSC21801 | 3.37e6 | 3.86e6 | 3.87e6 |
| SecCl (Secretory chloride channel) | DRSC10887 | 3.62e6 | 4.17e6 | 4.04e6 |
| CG32409 | DRSC08780 | 3.42e6 | 3.75e6 | 3.99e6 |
| CG6295 | DRSC16012 | 3.47e6 | 3.81e6 | 4.01e6 |
| Gr89a (Gustatory receptor 89a) | DRSC15023 | 3.24e6 | 3.78e6 | 3.54e6 |
| Dlc90F (Dynein light chain 90F) | DRSC16649 | 3.51e6 | 4.06e6 | 3.92e6 |
| CG2767 | DRSC15451 | 3.47e6 | 3.82e6 | 4.03e6 |
| CG9304 | DRSC04538 | 3.57e6 | 4.09e6 | 4.02e6 |
| fw (furrowed) | DRSC20334 | 3.59e6 | 4.07e6 | 4.05e6 |
| Eip93F (Ecdysone-induced protein 93F) | DRSC13527 | 3.52e6 | 4.09e6 | 3.91e6 |
| Eip93F (Ecdysone-induced protein 93F) | DRSC16661 | 3.37e6 | 3.86e6 | 3.81e6 |
| Eip93F (Ecdysone-induced protein 93F) | DRSC21754 | 3.69e6 | 4.20e6 | 4.12e6 |
| Eip93F (Ecdysone-induced protein 93F) | DRSC23072 | 2.38e6 | 2.62e6 | 2.62e6 |
| CG17715 | DRSC11950 | 3.40e6 | 3.79e6 | 3.88e6 |
| Patsas | DRSC02975 | 3.57e6 | 4.30e6 | 3.82e6 |
| Syn (Synapsin) | DRSC16876 | 3.63e6 | 4.02e6 | 4.15e6 |
| sax (saxophone) | DRSC07675 | 3.75e6 | 4.25e6 | 4.23e6 |
| HIP + HIP-R | DRSC18245 | 3.62e6 | 4.08e6 | 4.10e6 |
| CG8245 | DRSC04901 | 3.71e6 | 4.06e6 | 4.09e6 |
| CG14857 | DRSC14981 | 3.64e6 | 4.23e6 | 4.05e6 |
| Rab14 | DRSC03403 | 3.47e6 | 3.85e6 | 3.99e6 |
| Nup93-2 (Nucleoporin 93kD-2) | DRSC16221 | 3.53e6 | 4.07e6 | 3.93e6 |
| fusl (fuseless) | DRSC02351 | 3.61e6 | 4.09e6 | 4.12e6 |
| CG31496 | DRSC12547 | 1.76e6 | 4.08e6 | 3.80e6 |
| trc (tricornered) | DRSC11406 | 3.28e6 | 3.71e6 | 3.70e6 |
